Experimental findings from patent US6716596B2, “Agents for replacement of NAD+/NADH system in enzymatic reactions” (The Regents of the University of California, priority 2001, dated 2004) are described below.

A short description of this data set: regioselective reduction of biomimics with catalyst precursor (2) and sodium formate, followed by 1H NMR. To be noted: (2) as catalyst precursor, sodium formate as hydride source. As for the experimental part: The relative rates, seen tabulated in FIG. 1C, were determined by observing disappearance of the pyridinium signals versus an internal standard, [(CH3)4N]OTf (tetramethylammonium triflate), during the first 2 hours, where the relative rate of 1-benzylnicotinamide triflate (1) was set to 1.0. The turnover frequencies were calculated by the formation of mmol of product/mmol of catalyst/hour. The total turnover number in 24 hours was ˜95 for all substrates that gave product. The reactions were conducted in presilylated J. Young NMR tubes and were followed by ^1H NMR.
The electronic effect of differently substituted nicotinamide substrates was determined by their relative rates. The relative rates of these compounds were determined by observing the disappearance of the pyridinium signals compared to interval standard, [(CH3)4N]OTf, during the first 2 hours, where the relative rate of compound (1a) was 1.0.
In a typical reaction, a J. Young NMR tube was charged, biomimic substrates (1a)-(1i) (1.0 mol), 2 (1% mol), and HCO2Na (1.1 mol) used as the hydride source and a Schlenk techniques were conducted to deoxygenate the solid mixture. […]
The given relative rates and turnover frequencies were determined by decreasing integration of the corresponding pyridinium salts measured against an internal standard, (CH3)4N(OTf), during the first 2 h of the reaction. […]

Counter-ions that a name gives are not always drawn.

Consider `NC(=O)c1ccc[n+](Cc2ccccc2)c1` [Compound 1a, 1-Benzylnicotinamide, Triflate Salt], for which the “regiospecificity of reduction to 1,4-dihydro derivative” value is listed as “exclusively”. Further, where the note is “listed as 1”, the “regiospecificity of reduction to 1,4-dihydro derivative” value is reported as “almost exclusive 1,4-NADH regiospecificity”.
